Measured values published in PMC9076386 (RSC Advances, 2019).
pIC50: −log10 of the molar value.

System: MCF-7 cells
Assay: MTT cytotoxicity assay, MCF-7
Assay type: cell-based
Settings: Homo sapiens, MCF7, read-out: IC50 MCF-7

CC(=O)O[C@H]1C(=O)[C@@]2(C)[C@H]([C@H](OC(=O)c3ccccc3)[C@]3(O)C[C@H](OC(=O)[C@H](O)[C@@H](NC(=O)c4ccccc4)c4ccccc4)C(C)=C1C3(C)C)[C@]1(OC(C)=O)CO[C@@H]1C[C@@H]2O [Paclitaxel]
pIC50: 8.77
